Assay results from paper PMC6224402.

By UniProt entry, the sequences of proteins in these tests, tags left out.
UniProt Q9P1W9: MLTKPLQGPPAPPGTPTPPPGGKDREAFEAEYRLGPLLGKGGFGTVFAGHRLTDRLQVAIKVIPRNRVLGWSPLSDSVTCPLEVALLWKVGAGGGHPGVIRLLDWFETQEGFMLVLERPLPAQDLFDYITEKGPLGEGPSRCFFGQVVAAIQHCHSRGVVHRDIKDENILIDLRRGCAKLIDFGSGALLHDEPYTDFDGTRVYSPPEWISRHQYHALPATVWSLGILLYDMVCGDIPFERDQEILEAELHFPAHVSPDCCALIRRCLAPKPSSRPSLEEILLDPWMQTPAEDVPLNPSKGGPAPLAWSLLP

Target: endogenous PIM2 (human (endogenous in MCF-7)) (UniProt Q9P1W9)
Assay: affinity purification with mass spectrometry; mass spectrometry of the immunoprecipitated PIM2 complex in MCF-7 cells

B1: endogenous HK2 (enzyme, UniProt P52789 1-917)
chain: MIASHLLAYFFTELNHDQVQKVDQYLYHMRLSDETLLEISKRFRKEMEKGLGATTHPTAAVKMLPTFVRSTPDGTEHGEFLALDLGGTNFRVLWVKVTDNGLQKVEMENQIYAIPEDIMRGSGTQLFDHIAECLANFMDKLQIKDKKLPLGFTFSFPCHQTKLDESFLVSWTKGFKSSGVEGRDVVALIRKAIQRRGDFDIDIVAVVNDTVGTMMTCGYDDHNCEIGLIVGTGSNACYMEEMRHIDMVEGDEGRMCINMEWGAFGDDGSLNDIRTEFDQEIDMGSLNPGKQLFEKMISGMYMGELVRLILVKMAKEELLFGGKLSPELLNTGRFETKDISDIEGEKDGIRKAREVLMRLGLDPTQEDCVATHRICQIVSTRSASLCAATLAAVLQRIKENKGEERLRSTIGVDGSVYKKHPHFAKRLHKTVRRLVPGCDVRFLRSEDGSGKGAAMVTAVAYRLADQHRARQKTLEHLQLSHDQLLEVKRRMKVEMERGLSKETHASAPVKMLPTYVCATPDGTEKGDFLALDLGGTNFRVLLVRVRNGKWGGVEMHNKIYAIPQEVMHGTGDELFDHIVQCIADFLEYMGMKGVSLPLGFTFSFPCQQNSLDESILLKWTKGFKASGCEGEDVVTLLKEAIHRREEFDLDVVAVVNDTVGTMMTCGFEDPHCEVGLIVGTGSNACYMEEMRNVELVEGEEGRMCVNMEWGAFGDNGCLDDFRTEFDVAVDELSLNPGKQRFEKMISGMYLGEIVRNILIDFTKRGLLFRGRISERLKTRGIFETKFLSQIESDCLALLQVRAILQHLGLESTCDDSIIVKEVCTVVARRAAQLCGAGMAAVVDRIRENRGLDALKVTVGVDGTLYKLHPHFAKVMHETVKDLAPKCDVSFLQSEDGSGKGAALITAVACRIREAGQR
  binding: binds

These are yes or no findings as the source states them, for the method shown. In cells and extracts the contact can be indirect. Here binding means that the protein was enriched with, or labelled near, the bait; the list need not be complete.
